According to paper doi:10.1101/2020.06.22.164467:
No constants are given. Whether binding was seen depends on the method and setting. In cells and extracts the contact can be indirect. Some entries that bind do so weakly or less than the wild type.

The chains behind the UniProt entries cited, without tags or fusion partners. Where a name states a change or a piece, a line headed by the entry shows the natural chain unless it says otherwise. Residues count along the entry.
UniProt P02545, residues 1-646: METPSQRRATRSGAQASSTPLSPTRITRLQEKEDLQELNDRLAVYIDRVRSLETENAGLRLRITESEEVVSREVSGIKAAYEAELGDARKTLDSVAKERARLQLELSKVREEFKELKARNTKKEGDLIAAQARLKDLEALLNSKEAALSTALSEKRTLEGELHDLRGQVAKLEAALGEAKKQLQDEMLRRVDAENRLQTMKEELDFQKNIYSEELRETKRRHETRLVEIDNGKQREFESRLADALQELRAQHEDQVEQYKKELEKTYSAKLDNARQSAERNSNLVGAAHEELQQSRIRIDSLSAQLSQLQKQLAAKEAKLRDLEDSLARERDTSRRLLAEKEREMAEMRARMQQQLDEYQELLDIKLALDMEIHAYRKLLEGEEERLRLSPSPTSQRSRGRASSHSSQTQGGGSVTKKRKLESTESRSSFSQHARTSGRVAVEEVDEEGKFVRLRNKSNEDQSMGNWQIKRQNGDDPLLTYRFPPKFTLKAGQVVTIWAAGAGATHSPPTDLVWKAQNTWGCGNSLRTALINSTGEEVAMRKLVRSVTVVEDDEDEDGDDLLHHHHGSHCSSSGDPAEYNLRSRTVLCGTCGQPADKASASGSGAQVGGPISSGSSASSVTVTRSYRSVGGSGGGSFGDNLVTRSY
UniProt P05787: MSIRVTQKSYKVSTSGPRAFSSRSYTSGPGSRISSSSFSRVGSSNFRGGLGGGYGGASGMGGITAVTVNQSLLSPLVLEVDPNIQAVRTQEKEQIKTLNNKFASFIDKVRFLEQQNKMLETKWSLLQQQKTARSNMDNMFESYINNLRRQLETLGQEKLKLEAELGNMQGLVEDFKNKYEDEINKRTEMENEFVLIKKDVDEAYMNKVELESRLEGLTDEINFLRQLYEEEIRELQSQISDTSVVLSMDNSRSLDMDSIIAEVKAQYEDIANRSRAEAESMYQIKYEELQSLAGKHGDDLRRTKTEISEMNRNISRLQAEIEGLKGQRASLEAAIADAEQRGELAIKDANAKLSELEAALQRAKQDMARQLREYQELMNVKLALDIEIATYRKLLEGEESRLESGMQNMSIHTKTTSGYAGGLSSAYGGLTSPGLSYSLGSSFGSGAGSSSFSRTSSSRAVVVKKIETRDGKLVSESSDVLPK
UniProt P05783: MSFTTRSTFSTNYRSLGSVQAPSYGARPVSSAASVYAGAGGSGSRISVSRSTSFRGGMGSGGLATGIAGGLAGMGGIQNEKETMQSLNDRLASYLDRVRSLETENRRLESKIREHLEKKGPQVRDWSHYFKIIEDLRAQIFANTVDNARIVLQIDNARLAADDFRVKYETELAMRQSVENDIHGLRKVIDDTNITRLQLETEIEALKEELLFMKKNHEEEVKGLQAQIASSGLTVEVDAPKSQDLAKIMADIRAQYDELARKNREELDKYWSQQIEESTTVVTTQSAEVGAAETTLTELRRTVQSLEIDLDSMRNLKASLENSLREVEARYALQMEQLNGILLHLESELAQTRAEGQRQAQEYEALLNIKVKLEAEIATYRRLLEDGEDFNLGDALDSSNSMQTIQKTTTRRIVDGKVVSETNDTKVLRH
UniProt P08727: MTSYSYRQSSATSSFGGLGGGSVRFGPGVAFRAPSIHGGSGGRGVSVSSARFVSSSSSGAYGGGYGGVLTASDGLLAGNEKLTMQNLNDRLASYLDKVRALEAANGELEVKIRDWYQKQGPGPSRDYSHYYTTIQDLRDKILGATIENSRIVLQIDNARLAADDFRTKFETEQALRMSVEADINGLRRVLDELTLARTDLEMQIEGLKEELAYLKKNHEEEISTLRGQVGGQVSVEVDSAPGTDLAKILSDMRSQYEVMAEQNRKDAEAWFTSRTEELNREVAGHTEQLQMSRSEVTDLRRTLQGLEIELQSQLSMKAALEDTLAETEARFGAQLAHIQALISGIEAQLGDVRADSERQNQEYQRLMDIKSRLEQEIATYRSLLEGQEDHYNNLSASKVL

Columns and labels:
[1] = molecular target: lamin A (human (endogenous in Caco-2)) (UniProt P02545); experiment: co-IP
[2] = molecular target: keratin 8 / keratin 18 (K8/K18) (human (endogenous in Caco-2)) (UniProt P05787+P05783); experiment: co-IP

Row | Substance | binding [1] | binding [2]
1 | keratin 8 / keratin 18 (K8/K18) (from UniProt P05787 1-483; P05783 1-430) (complex) | binds | –
2 | keratin 19 (K19) (from UniProt P08727 1-400) | binds | –
3 | lamin A (from UniProt P02545 1-646) | – | binds
